Patent US20250136695A1
Substitutions are numbered along the chain they refer to. No constants are given. Whether binding was seen depends on the method and setting. Some entries that bind do so weakly or less than the wild type. Sequences can lack the tags named with a protein.

Sequences of proteins named here, by UniProt entry; tags and fusion partners are left off. Residues count along the entry.
UniProt Q9NZQ7, residues 19-290: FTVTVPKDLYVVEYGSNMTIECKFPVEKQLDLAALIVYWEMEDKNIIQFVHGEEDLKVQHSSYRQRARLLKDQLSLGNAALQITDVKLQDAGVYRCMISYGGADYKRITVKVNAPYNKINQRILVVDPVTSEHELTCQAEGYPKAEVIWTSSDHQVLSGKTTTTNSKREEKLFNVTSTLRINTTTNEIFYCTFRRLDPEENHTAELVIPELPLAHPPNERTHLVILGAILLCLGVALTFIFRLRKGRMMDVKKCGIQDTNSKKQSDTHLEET

B1: 17-A01 (VHH fused to human IgG1 Fc) (Fc fusion, not shown: a dimerising Fc or GST)
chain: MAAVQLVDSGGGLVQPGGSLRLSCAASGRTFGFYGWFRQAPGKEREFVAAITWGGSAISYEDSAKGRFTISRDNAKNTVYLQMNSLKPEDTAVYYCARSTRVTTNPREYDYWGQGTQVTVSS
B2: 17-G06 (VHH fused to human IgG1 Fc) (Fc fusion, not shown: a dimerising Fc or GST)
chain: B1 chain with D8E, E61D, T100M
B3: 23-G3 (VHH fused to human IgG1 Fc) (Fc fusion, not shown: a dimerising Fc or GST)
chain: MAAVQLVESGGGLVQAGGSLRLSCVASGRSFITYAVGWFRQAPGKEREFVASVNWSGAMTYYADAVNGRFTISRDNAKNTVYLQMNNLKLEDTAVYYCAATISAVTPTNGYQNWGQGTQVTVSS
B4: 29-H9 (VHH fused to human IgG1 Fc) (Fc fusion, not shown: a dimerising Fc or GST)
chain: RLQLVESGGGLVQAGGSLRLSCAASGFTFSTYAMSWYRGVPEKERELVAFISSDGGGTTYRDSVKGRFTISRDNGKNTVYLQMNSLKPEDTGVYYCARGLAQIWGQGTQVTVSS
B5: 17-A06 (VHH fused to human IgG1 Fc) (Fc fusion, not shown: a dimerising Fc or GST)
chain: B3 chain with A3Q, Q5K, V7E, V53I, A63T, A65S, T71A, A100S
B6: 17-C12 (VHH fused to human IgG1 Fc) (Fc fusion, not shown: a dimerising Fc or GST)
chain: MAQVKLEESGGGLVQPGGSLTLSCAASGRTFGFYGWFRQAPGKEREFVAGITWGGSVTSYADSVKGRFTISRDNAKNTVYLQMNSLKPENTAVYYCARSPRVTTTPREFDVWGQGTQVTVSS

Legend:
[1] = biological target: PDL1 expressed on recombinant CHO cells (CHO-K1/PDL1; aAPC CHO-PDL1) (UniProt Q9NZQ7); test: flow cytometry, purified antibody in four 5-fold dilutions from 10 µg/mL on CHO-K1/PDL1 cells
[2] = biological target: PDL1 expressed on recombinant CHO cells (CHO-K1/PDL1; aAPC CHO-PDL1) (UniProt Q9NZQ7); test: flow cytometry, transient expression supernatant on CHO-K1/PDL1 cells, labelled anti-human IgG

| Binder | binding [1] | binding [2] |
| --- | --- | --- |
| B1 | binds | binds |
| B2 | binds | binds |
| B3 | binds | binds |
| B4 | binds | binds |
| B5 | binds | binds |
| B6 | binds | binds |
